42 sequences from paper PMC7819943, “Rice protein-binding microarrays: a tool to detect cis-acting elements near promoter regions in rice” can be followed below.

Protein sequences, listed by entry. Tags and fused reporters are not part of them.
UniProt Q0JBA9, entry or part of it: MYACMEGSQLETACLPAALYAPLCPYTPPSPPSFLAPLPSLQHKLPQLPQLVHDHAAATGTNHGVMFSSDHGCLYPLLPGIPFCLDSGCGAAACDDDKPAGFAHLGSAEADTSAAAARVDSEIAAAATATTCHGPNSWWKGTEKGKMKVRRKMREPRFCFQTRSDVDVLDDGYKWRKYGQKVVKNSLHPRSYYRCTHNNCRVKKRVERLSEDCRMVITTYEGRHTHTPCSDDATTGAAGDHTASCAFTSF

This is one part of the list.

The target of this assay is OsWRKY34 (Oryza sativa, UniProt Q0JBA9 1-250). As to the kind of experiment: protein-binding microarray (RPBM); PBS, 2% BSA, 51.3 ng/ul salmon testes DNA, 50 uM zinc acetate, 200 nM TF, 25 C, 1 h; high values mean tight binding. The settings on record: protein: recombinant; tags: N-terminal polyhistidine and DsRed monomer fusion (pET32a); label: CyDye5-dUTP incorporated in the synthesized complementary strand; 3' TTTTT single-stranded linker to array surface; dsDNA, one strand shown. A digest of the protocol: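 Binding signal is reported as fluorescence intensity per feature (arbitrary units) from an Axon 4000B scanner. Incubation used 200 nM of each Ni–NTA-purified, N-terminally polyhistidine- and DsRed-fused transcription factor from E. coli BL21-CodonPlus on a double-stranded custom Agilent array for 1 h at 25 °C, with 50 µM zinc acetate in the buffer, followed by washing.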
Regarding “CTCTAACAGTCTGCTATTATATCTGCTCTCATGCGTCATCCGGAGTCACCTAGTGCAG”, the binding signal was 11100 fluorescence intensity (a.u.).

In the case of “CCACACTACACTGCCTCACATTTACTACACCTCTAGCTCCCGGAGTCACCTAGTGCAG”, the binding signal is 8350 fluorescence intensity (a.u.).

Consider “AAATCTTTCCATTTCTTTTGGTTTCTTCAAAGATTTGTTTCGGAGTCACCTAGTGCAG”, for which the binding signal was 8440 fluorescence intensity (a.u.).

Turning to “CATGTCACATCGGATGTTTAGGCGCTAATTTAAAGTATTACGGAGTCACCTAGTGCAG”, the binding signal was 8230 fluorescence intensity (a.u.).

As for “GGTTGTGTGGCTAAACGTGGCTAAGTGTGTGTGTGTGCGTCGGAGTCACCTAGTGCAG”, the binding signal was 9740 fluorescence intensity (a.u.).

In the case of “GCATTATTGGGACCTATATATCTTCTTTGCCACGTACAGTCGGAGTCACCTAGTGCAG”, the binding signal was 11900 fluorescence intensity (a.u.).

Regarding “AGTCTTTTTTTTTGCTTCTTCTTCTTAAACAGATTCTTTTCGGAGTCACCTAGTGCAG”, the binding signal is 8250 fluorescence intensity (a.u.).

Consider “ATCTATTTTGCCACTTATTAGGCGTTTAACTATTTACGACCGGAGTCACCTAGTGCAG”, for which the binding signal was 9090 fluorescence intensity (a.u.).

As for “GAGACAGTGTACCGGCCATTTGCCAGATTTGCTTCCTCAGCGGAGTCACCTAGTGCAG”, the binding signal is 8650 fluorescence intensity (a.u.).

With “GCCAGGCCGTGCCAGTCCACTTGCTGCACCATTGGTCTAGCGGAGTCACCTAGTGCAG”, the binding signal was 8160 fluorescence intensity (a.u.).

In the case of “ACGTGACAACCGTTGCCTACTCATCTGACAGCATTATCCGCGGAGTCACCTAGTGCAG”, the binding signal was 8560 fluorescence intensity (a.u.).

As for “CACGGTTGTCCGGTTGACCATCACTCTGTCCAGCGCGTCTCGGAGTCACCTAGTGCAG”, the binding signal was 11000 fluorescence intensity (a.u.).

Consider “AGCGGCAGGAAGTAGTCTCTGTTTTGTTTTGCTCTTCTGCCGGAGTCACCTAGTGCAG”, for which the binding signal was 10700 fluorescence intensity (a.u.).

Turning to “CCATTTAGATTGGTGCCATTTTAAACTATATCTTTTTCTTCGGAGTCACCTAGTGCAG”, the binding signal was 8220 fluorescence intensity (a.u.).

Regarding “TTCATATTTCACTAATGCACCTTTTGCCAGTGGCCCATCACGGAGTCACCTAGTGCAG”, the binding signal is 11100 fluorescence intensity (a.u.).

For “ACATATGTCTAGATTCGTTCTACTATGAAATATTTCATCTCGGAGTCACCTAGTGCAG”, the binding signal is 8260 fluorescence intensity (a.u.).

As for “CATATATTTTTTCTATGTTTTGTAATTCTTTGTTTTTACACGGAGTCACCTAGTGCAG”, the binding signal was 9840 fluorescence intensity (a.u.).

Regarding “ACCATTCCTTTATTATCCACTGTAATTAAAATCGGTATGTCGGAGTCACCTAGTGCAG”, the binding signal was 9380 fluorescence intensity (a.u.).

As to “TCTCCTACTTCCGCGCGCAAATCGTGGATCGCCGATTCCACGGAGTCACCTAGTGCAG”, the binding signal is 9150 fluorescence intensity (a.u.).

On to “GCTATCCGCCGCAGCTCGGCCGTCTCCCAGCGCCGTCGCACGGAGTCACCTAGTGCAG”, for which the binding signal is 8200 fluorescence intensity (a.u.).

For “AGTTTCAGCAGTTGTCAAATTTAAGATTCACATGATGTGTCGGAGTCACCTAGTGCAG”, the binding signal is 8600 fluorescence intensity (a.u.).

In the case of “GCTTTTCTTTGCTAGTGGGCTATCTCTTGCTCCAAACTTCCGGAGTCACCTAGTGCAG”, the binding signal was 8120 fluorescence intensity (a.u.).

In the case of “ATATATTAATGTGCAATCTTTTTACGTGTTCGCGAAAAAACGGAGTCACCTAGTGCAG”, the binding signal was 9610 fluorescence intensity (a.u.).

With “CGCATGCCCGATCGTTTTTCTGTGCGACGCGCGGTCACCGCGGAGTCACCTAGTGCAG”, the binding signal is 10600 fluorescence intensity (a.u.).

As to “TAGCCTATTTCTTATACCATATCTCTATCCCGTGAAATTCCGGAGTCACCTAGTGCAG”, the binding signal was 10100 fluorescence intensity (a.u.).

As to “CTATATACGTATTTGCCTCGAGCATCTACGCGCGTATATACGGAGTCACCTAGTGCAG”, the binding signal was 11600 fluorescence intensity (a.u.).

As to “TAGCACATGTTTGACCGTTCGTCTTATTCAAATTTTTTTTCGGAGTCACCTAGTGCAG”, the binding signal is 13000 fluorescence intensity (a.u.).

“TTTTTTAGGCTCCTTATTGTCATTATCACTTAGCATCATTCGGAGTCACCTAGTGCAG”: the binding signal was 8120 fluorescence intensity (a.u.).

With “TTGGGGCGCTTTTTTTCTTTTGGGTTCTCTTTGACAGGACCGGAGTCACCTAGTGCAG”, the binding signal was 12000 fluorescence intensity (a.u.).

For “CACCGCCGAAAGAGGAGGAGGGGAGGGGAGGGCCGACGGGCGGAGTCACCTAGTGCAG”, the binding signal is 11200 fluorescence intensity (a.u.).

Take “GAGGAGGTAGGTATGCTTTAATATCCACTGCTGTTTCTTTCGGAGTCACCTAGTGCAG”: the binding signal was 9170 fluorescence intensity (a.u.).

On to “ACACCCGCCGCCACGTCACTCCACGCCGCACCCACCCACTCGGAGTCACCTAGTGCAG”, for which the binding signal was 10400 fluorescence intensity (a.u.).

As to “AAAATAACTTACGGGGTGGAATGTCAAACTTCAAGTGACTCGGAGTCACCTAGTGCAG”, the binding signal was 8470 fluorescence intensity (a.u.).

Regarding “CCACCTAAAAGCCCACCACATCCATCCATCTTGCTTGCCACGGAGTCACCTAGTGCAG”, the binding signal is 8390 fluorescence intensity (a.u.).

On to “TTACTATTTAGCGCATATTTATTCATAGCATGCACCTTTTCGGAGTCACCTAGTGCAG”, for which the binding signal is 8820 fluorescence intensity (a.u.).

With “CCATCCGTCTCCATCCAACACCTCCCCGTGCTCGCACCCACGGAGTCACCTAGTGCAG”, the binding signal is 10500 fluorescence intensity (a.u.).

In the case of “AATCAGTTGGGCGGGTGGGGTGCCTTCCAGCCAGATGCCCCGGAGTCACCTAGTGCAG”, the binding signal was 8080 fluorescence intensity (a.u.).

Take “AGGTTATTAATTCACATATCCTAAGGTTGTGTTTAGTTCACGGAGTCACCTAGTGCAG”: the binding signal is 8200 fluorescence intensity (a.u.).

As to “CTTATCCTTTTCATTTTCATTTTCGCTGAATTTCTGTACACGGAGTCACCTAGTGCAG”, the binding signal was 10700 fluorescence intensity (a.u.).

Regarding “GGTTTAATCTGTTTGTCGTACTGCCATCATAAAGCCTAAGCGGAGTCACCTAGTGCAG”, the binding signal was 10600 fluorescence intensity (a.u.).

With “AATTTACTTTTGTCTCGTGTTATCCTTTTGTTTTGTTTTACGGAGTCACCTAGTGCAG”, the binding signal is 12200 fluorescence intensity (a.u.).

For “CTCAGCTCCACCGTTTCATTTCGTTTTTTTTTTCTCTCATCGGAGTCACCTAGTGCAG”, the binding signal was 13900 fluorescence intensity (a.u.).
